Data on two substances can be found in publication PMC5841828.

By UniProt entry, the sequences of proteins in these tests, tags left out. Residues count along the entry.
UniProt P32297, residues 32-505: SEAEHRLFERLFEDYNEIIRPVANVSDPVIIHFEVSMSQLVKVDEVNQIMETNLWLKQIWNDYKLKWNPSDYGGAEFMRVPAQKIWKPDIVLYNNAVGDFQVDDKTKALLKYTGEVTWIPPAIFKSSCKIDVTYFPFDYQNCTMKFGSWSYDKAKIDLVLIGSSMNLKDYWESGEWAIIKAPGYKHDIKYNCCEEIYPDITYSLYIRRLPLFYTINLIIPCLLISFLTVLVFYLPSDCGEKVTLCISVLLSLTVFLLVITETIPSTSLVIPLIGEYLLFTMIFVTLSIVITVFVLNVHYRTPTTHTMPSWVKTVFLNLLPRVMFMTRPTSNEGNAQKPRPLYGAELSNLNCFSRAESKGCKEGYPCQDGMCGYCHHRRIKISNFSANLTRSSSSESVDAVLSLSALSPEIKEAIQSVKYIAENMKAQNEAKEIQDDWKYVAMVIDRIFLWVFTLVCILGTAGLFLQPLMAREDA
UniProt P30532, residues 23-468: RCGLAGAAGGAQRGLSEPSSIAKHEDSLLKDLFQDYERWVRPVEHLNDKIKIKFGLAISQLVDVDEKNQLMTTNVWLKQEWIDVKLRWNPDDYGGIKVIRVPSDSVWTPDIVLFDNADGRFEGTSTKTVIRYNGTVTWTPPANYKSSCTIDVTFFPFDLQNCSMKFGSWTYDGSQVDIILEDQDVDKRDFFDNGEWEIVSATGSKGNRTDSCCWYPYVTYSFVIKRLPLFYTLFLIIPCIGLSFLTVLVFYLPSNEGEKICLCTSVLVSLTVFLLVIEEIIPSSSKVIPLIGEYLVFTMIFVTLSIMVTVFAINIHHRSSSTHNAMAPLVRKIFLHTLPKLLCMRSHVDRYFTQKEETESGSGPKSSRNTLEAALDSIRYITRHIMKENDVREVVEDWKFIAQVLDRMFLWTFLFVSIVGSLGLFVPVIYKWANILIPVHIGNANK
UniProt P30926, residues 22-498: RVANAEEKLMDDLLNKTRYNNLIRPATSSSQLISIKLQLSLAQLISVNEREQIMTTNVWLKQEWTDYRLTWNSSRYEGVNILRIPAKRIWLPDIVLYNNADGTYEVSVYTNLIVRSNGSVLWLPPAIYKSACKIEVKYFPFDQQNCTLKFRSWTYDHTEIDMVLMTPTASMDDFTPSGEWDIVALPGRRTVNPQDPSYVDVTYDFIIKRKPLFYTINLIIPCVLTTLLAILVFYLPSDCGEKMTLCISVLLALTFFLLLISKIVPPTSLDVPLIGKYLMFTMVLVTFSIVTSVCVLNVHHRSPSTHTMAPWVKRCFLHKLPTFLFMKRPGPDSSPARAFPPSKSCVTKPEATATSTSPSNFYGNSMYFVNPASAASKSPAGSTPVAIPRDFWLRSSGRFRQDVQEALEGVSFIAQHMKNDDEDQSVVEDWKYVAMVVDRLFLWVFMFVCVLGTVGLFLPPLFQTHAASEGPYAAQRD

Results are given in words; binding and its absence hold for the method and conditions named. In cells and extracts the contact can be indirect. Some entries that bind do so weakly or less than the wild type.

For the experiment, the target named is CHRNA3 (nicotinic acetylcholine receptor α3 subunit) (human (endogenous in HBO cells)) (UniProt P32297). Description: co-IP; 2 μg AChRα3 antibody on Protein A/G-plus agarose, incubated with 1 mg HBO whole cell extract (modified RIPA buffer: 50 mM Tris-Cl pH 7.4, 1% Nonidet P-40, 150 mM NaCl, 1 mM EDTA) overnight at 4°C; beads washed three times with RIPA buffer; Western blot; IgG as negative control.

As for “CHRNA5 (nicotinic acetylcholine receptor α5 subunit) (from UniProt P30532 23-468)”, the binding entry is “binds”. The entry for “CHRNB4 (nicotinic acetylcholine receptor β4 subunit) (from UniProt P30926-1 22-498)” is “binds”.
